Results reported in doi:10.1101/2025.09.08.674995.
These are yes or no findings as the source states them, for the method shown. Binding seen in cells or lysates may run through a third protein. Binding can be weak; no strength is given. Where a sequence is shown, tags or fusion partners need not be part of it.

Target: Xenopus tropicalis PP2A-Cα (PPP2CA), His6-tagged (X. tropicalis) (UniProt Q6P365)
Experiment: tandem affinity co-purification

- binding: binds
B1: Xenopus tropicalis PP2A-B55ο (PPP2R2D), Twin-strep-tagged (protein, UniProt Q6DIY3 1-447)
chain: MAGVGGGNDFQWCFSQVKGAIDEDVAEADIISTVEFNCSGDLLATGDKGGRVVIFQREQENKSRPHSRGEYNVYSTFQSHEPEFDYLKSLEIEEKINKIRWLPQQNAAHFLLSTNDKTIKLWKISERDKRVEGYNLKDDDGRLRDPFRITSLRVPILKPMDLMVEASPRRIFANAHTYHINSISVNSDHETYLSADDLRINLWHLEITDRSFNIVDIKPANMEELTEVITAAEFHPHHCNVFVYSSSKGTIRLCDMRDSALCDRHSKFFEEPEDPSSRSFFSEIISSISDVKFSNSGRYMMTRDYLSVKVWDLNMESRPVETYQVHEYLRSKLCSLYENDCIFDKFECCWNGSDSAIMTGSYNNFFRMFDRNTRRDITLEASRESSKPRAILKPRKVCTGGKRKKDEINVDSLDFNKKILHTAWHPTDNIIAVAATNNLYIFQDKVN
